From patent publication US20030203415A1 (published 2003)
No constants are given. Whether binding was seen depends on the method and setting. Some results given as binding are weak or reduced against the parent protein; the word gives no strength.

T1: H6NA3 (UniProt P06731 35-144; P06731 499-590, limits assumed)
T1 construct: domain: N domain;domain: A3 domain; recombinant truncated target
T1 sequence: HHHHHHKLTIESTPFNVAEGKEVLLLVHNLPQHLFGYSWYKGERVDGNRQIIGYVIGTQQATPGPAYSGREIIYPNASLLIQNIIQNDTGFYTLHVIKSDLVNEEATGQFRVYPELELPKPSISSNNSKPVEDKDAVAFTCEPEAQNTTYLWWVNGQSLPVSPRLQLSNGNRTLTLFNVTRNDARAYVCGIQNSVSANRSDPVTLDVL


Target: T1, H6NA3
Assay: phage ELISA on NA3

| binding | Binder |
| --- | --- |
| binds | DWVCEFSKVQWYCNPL [315A-16-C04] |
| binds | DWVCNLFKNQWFCNVW [315A-20-A06] |
| binds | DWVCELLKNQWFCNVL [315A-20-D07] |
| binds | DWVCNLFKNQWFCNVL [315A-20-F11] |
| binds | DWVCNLFKNQWFCDVV [315A-20-C09] |
| binds | DWVCNLFKNQWFCDVM [315A-20-G10] |
| binds | DWICNLFKNQWFCDAW [315A-21-A06] |
| binds | DWICNLFKNQWFCDQL [315A-20-H06] |
| binds | DWICNLFKNQWFCDIR [315A-20-B07] |
| binds | DWVCEWGKNQWTCNPL [315A-22-E12] |
| binds | DWVCEFDKLQWVCNVL [315A-21-A12] |
| binds | DWVCEYVKSQWSCNPL [315A-19-A10] |
| binds | DWVCEFDKGQWNCNIL [315A-20-H09] |
| binds | DWVCEWLKNQWWCNVL [315A-20-D06] |
| binds | DWVCEFEKGQWTCNVL [315A-23-F10] |
| binds | DWVCEWLKMQWACNIL [315A-20-B08] |
| binds | DWVCEWLKMQWACNVL [315A-20-C10] |
| binds | DWVCEFIKDQWYCDLA [315A-20-B09] |
| binds | DWMCNLFKNQWFCDVQ [315A-20-H07] |
| binds | DWVCEWFKPQWICNLL [315A-22-B06] |
| binds | DWVCEIVKNQWHCNVL [315A-22-D06] |
| binds | DWVCEWLKMQWACNML [315A-21-H09] |
| binds | DWVCNLFKNQWFCDQM [315A-21-E07] |
| binds | DWVCEFFKSQWYCNIL [315A-21-F07] |
| binds | DWVCEWLKMQWACNIL [315A-17-B01] |
| binds | DWVCEYFKNQWLCNIL [315A-17-A06] |
| binds | DWVCEWFKAQWFCNML [315A-20-G12] |
| binds | DWVCNLFKNQWFCDVH [315A-20-A12] |
